Measurements reported in PubChem BioAssay AID743121 (NCATS, 2013).

Purpose: 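Genes whose silencing strengthens cell killing by camptothecin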 (primary screen)
Cells: MDA-MB-231 cells, a human breast cancer line
Knock-down reagent: single siRNA against human genes, 20 nM siRNA (0.8 pmol per well)
Duration: 120 h (drug added 48 h after transfection, read 72 h later)
Challenge: camptothecin 20 nM (about EC30) for 72 h; vehicle 0.1% DMSO in parallel plates
Measurement: 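CellTiter-Glo ATP signal, scaled to control siRNA as percent viability; sensitisation given as log2 of untreated divided by camptothecin-treated viability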
Reading the numbers: log2 vehicle/camptothecin viability: higher = stronger sensitisation to camptothecin; viability with camptothecin and viability without drug: higher = more viable cells
Call rule: 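Active genes have an RSA gene-level p-value below 0.001, computed from the ratios of their separate siRNAs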
The whole screen tested about 26,000 reagents; shown is a part drawn at random. 167 of them (0.63%) were called active. 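Calls are per gene from RSA p-values that are not deposited; an individual active-marked siRNA can sensitise only weakly.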 Reagents against one gene are numbered here.

target	siRNA no.	log2 vehicle/camptothecin viability	viability with camptothecin (% of control)	viability without drug (% of control)	call
PHEX	1	-0.139	95.5	86.8	inactive
PHEX	2	-0.318	53.7	43.1	inactive
PHEX	3	-0.639	112	72	inactive
PHEX	4	-0.482	57.8	41.4	inactive
PPP1R14D	1	0.408	41.5	55.1	inactive
PPP1R14D	2	-0.34	141	111	inactive
PPP1R14D	3	-0.267	65.5	54.5	inactive
PPP1R14D	4	0.17	45.8	51.5	inactive
GADD45A	1	-0.326	119	95	inactive
GADD45A	2	-0.112	98	90.7	inactive
GADD45A	3	0.129	47.5	52	inactive
GADD45A	4	-0.296	97.2	79.1	inactive
DECR2	1	-0.421	81.2	60.6	inactive
DECR2	2	-0.511	92.1	64.6	inactive
DECR2	3	-0.096	62.8	58.8	inactive
DECR2	4	-0.0338	107	104	inactive
NODAL	1	0.086	95.7	102	inactive
NODAL	2	-0.00286	105	105	inactive
NODAL	3	-0.174	94.8	84.1	inactive
NODAL	4	-0.407	37.7	28.4	inactive
TYMS	1	-0.117	111	103	inactive
TYMS	2	0.039	98	101	inactive
TYMS	3	-1.06	118	56.4	inactive
TYMS	4	-0.527	66.8	46.3	inactive
TAS2R10	1	-0.334	117	92.9	inactive
TAS2R10	2	-0.196	81.1	70.8	inactive
TAS2R10	3	-0.595	62	41.1	inactive
TAS2R10	4	-0.324	81.2	64.9	inactive

Laid out differently: entries from further up.
{"target":"DECR2","siRNA no.":3,"log2 vehicle/camptothecin viability":-0.096,"viability with camptothecin (% of control)":62.8,"viability without drug (% of control)":58.8,"call":"inactive"}
{"target":"DECR2","siRNA no.":4,"log2 vehicle/camptothecin viability":-0.0338,"viability with camptothecin (% of control)":107,"viability without drug (% of control)":104,"call":"inactive"}
{"target":"NODAL","siRNA no.":1,"log2 vehicle/camptothecin viability":0.086,"viability with camptothecin (% of control)":95.7,"viability without drug (% of control)":102,"call":"inactive"}
